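Genome-wide siRNA knockdown in TC32 Ewing sarcoma cells, comparing luciferase light from an NR0B1-promoter reporter with a CMV-promoter reporter 48 hours after transfection. Each siRNA was applied at 20 nM. A z-score of the log NR0B1-over-CMV signal, less the median of siRNAs with the same seed; more negative means a stronger specific loss of the NR0B1 reporter.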

This is part of the screen; most of the strongest results are not listed here. Sequences are the guide (antisense) strand, without overhang.

strand: UUUCUGACGAGACACCUGC
gene: XIRP1
seed-corrected z-score: -0.6553

strand: AAUGAUAUAUUCCUUGUAC
gene: PTGR1
seed-corrected z-score: 0.09225

strand: UUGAGUUAAAUGAUAGGCC
gene: ADGRG6
seed-corrected z-score: -0.3559

strand: UUCUGGACAUCAGUUUCCU
gene: FLJ45513
seed-corrected z-score: 0.4358

strand: AUGUUUCCAAGGUAGAUUC
gene: THAP5
seed-corrected z-score: -1.309

strand: UGGGCUUUUAUCUAUCUCC
gene: TAMM41
seed-corrected z-score: -0.7813

strand: UGAAUGACAUGUAAGAUCU
gene: KLF8
seed-corrected z-score: 0.481

strand: UGACUUCAGGGUUAAGUCC
gene: TMEM220
seed-corrected z-score: -0.04483

strand: AAGUGUAUAAAAACAGGGC
gene: DDX58
seed-corrected z-score: -0.2136

strand: UGACAUAUUAUGGAAGACC
gene: ZNF83
seed-corrected z-score: 0.1577

strand: UUCACUAUCAAUCUUUAGC
gene: ZC3H11A
seed-corrected z-score: -0.1407

strand: UGAAUUCACAAAUUUUAUG
gene: FITM1
seed-corrected z-score: -0.1579

strand: UUUGAUCCGACUGUGCUCC
gene: ALDH4A1
seed-corrected z-score: -0.04046

strand: UCUUUAAUCCAGUUGGUUC
gene: IYD
seed-corrected z-score: -0.1093

strand: UAUAGGAUGGGACCUCUCC
gene: DNAJC9
seed-corrected z-score: -0.1901

strand: UACUUUAAUUUGUUUCUCC
gene: RPL13AP17
seed-corrected z-score: -0.3951

strand: UACUGGAUGAUGUUGUUGA
gene: HID1
seed-corrected z-score: -0.5699

strand: UUUCUGGUAAGCGCACCUG
gene: CCDC34
seed-corrected z-score: -0.3955

strand: UCCUAUAGCUUUCAAAUGC
gene: LCA5L
seed-corrected z-score: -0.7497

strand: UUGGCAUACAGACACAUGG
gene: RPL29P23
seed-corrected z-score: -0.6107

strand: UUGGACAAUAGGAUACUCA
gene: CLEC4G
seed-corrected z-score: -0.2875

strand: UUUGGAGUCGAUCAUGCCC
gene: VRTN
seed-corrected z-score: 0.03068

strand: UCAGGUAGUACAUGUACUC
gene: RFX1
seed-corrected z-score: -0.2712

strand: UACGUAGUCCUCGUAGAUG
gene: RGS19
seed-corrected z-score: -0.1725

strand: UGCAGUAACUUCUUCGAUG
gene: TDRD1
seed-corrected z-score: -0.3251

strand: UGUCUUACCCAGCUUGUAG
gene: TCAF2
seed-corrected z-score: -0.2504

strand: UCCAGGAAUAGACUCCAGC
gene: TYMP
seed-corrected z-score: 0.1146

strand: UUAGCAUCCUUAUCCUUUC
gene: RPS13
seed-corrected z-score: 0.9949

strand: UUAAGUUACUGGUGUCUGG
gene: C20orf196
seed-corrected z-score: 0.3249

strand: ACGCAAUCCACCUGUAUCC
gene: DEFB136
seed-corrected z-score: -1.51

strand: UGAGGACUAAGUAUGGAUC
gene: PSORS1C2
seed-corrected z-score: -0.2441

strand: AAUAGGAUUGGAGAGACUG
gene: PTGFRN
seed-corrected z-score: 0.7573

strand: UCUGUUGCUUCAAGAGUGC
gene: MCM10
seed-corrected z-score: -0.9412

strand: UGCGAAUUUGGUAAACUUC
gene: GPR137C
seed-corrected z-score: 0.7014

strand: UUGGUAAUAGUGCAUGUCC
gene: RRAGB
seed-corrected z-score: -0.9303

strand: UUUUUCUGAGAGGUGAUGG
gene: CLRN1
seed-corrected z-score: -0.2485

strand: UUCUCAUCAAUUUGGUUAG
gene: SH3GL2
seed-corrected z-score: -0.08894

strand: UUCGUGAACCUUCGAGUCC
gene: TENM2
seed-corrected z-score: 0.6298

strand: CUCGUCUCUAGAACGCACU
gene: MUC3B
seed-corrected z-score: 1.004

strand: UUCUAUGAUGUUCUUAUCC
gene: SYK
seed-corrected z-score: 0.06359

strand: AUCGUAUAAAUCUCGAGCC
gene: HECTD1
seed-corrected z-score: 0.2628

strand: UUUUGUCGUAGGAAGUGUG
gene: PIP4K2A
seed-corrected z-score: -0.4844

strand: UUUGCGAUAAUUCUUUCGG
gene: MYO1A
seed-corrected z-score: -0.3303

strand: UUUAUAGUAUGAGGAAUAC
gene: RNASE9
seed-corrected z-score: -0.6629

strand: AACUCGUUACUACAUAACC
gene: ALS2
seed-corrected z-score: -0.9149

strand: UUCUGAAUCAGCAGGUACC
gene: SLC2A5
seed-corrected z-score: 0.5231

strand: UAGAUGUUGGUCAUAAUUC
gene: CCR3
seed-corrected z-score: 0.5558

strand: UAUGUAGGAACUGAUAGAG
gene: IP6K3
seed-corrected z-score: -0.4078

strand: UCUGGGAACUGACUAAGGG
gene: KCNA10
seed-corrected z-score: -1.073

For reference, 3 entries once more:

| strand | gene | seed-corrected z-score |
|---|---|---|
| `UGCAGUAACUUCUUCGAUG` | TDRD1 | -0.3251 |
| `AUCGUAUAAAUCUCGAGCC` | HECTD1 | 0.2628 |
| `UUGAGUUAAAUGAUAGGCC` | ADGRG6 | -0.3559 |

The results are deposited in PubChem (AID1159506; NCATS, 2015).